PMC3522597
No constants are given. Whether binding was seen depends on the method and setting. In cells and extracts the contact can be indirect. Some binding calls cover weakened binding; strength is not graded here.

Biological target: T1, tetraspanin CD81 (human (endogenous in Du145)) (UniProt P60033)
T1 sequence: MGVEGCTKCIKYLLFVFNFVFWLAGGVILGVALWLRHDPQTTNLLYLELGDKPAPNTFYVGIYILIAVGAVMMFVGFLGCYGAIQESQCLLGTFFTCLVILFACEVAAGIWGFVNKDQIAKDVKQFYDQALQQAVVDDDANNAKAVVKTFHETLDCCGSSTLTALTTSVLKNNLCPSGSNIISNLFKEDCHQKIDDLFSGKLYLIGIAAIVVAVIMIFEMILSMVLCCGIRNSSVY
Experiment: co-IP; Du145-CD82 cells grown dense (confluent) or sparse (50% confluence), lysed in 1% Brij 98; precipitated with CD81 mAb M38 or control IgG, blotted with CD82 mAb TS82b

B1: Tetraspanin KAI1/CD82 (protein, UniProt P27701 1-267)
chain: MGSACIKVTKYFLFLFNLIFFILGAVILGFGVWILADKSSFISVLQTSSSSLRMGAYVFIGVGAVTMLMGFLGCIGAVNEVRCLLGLYFAFLLLILIAQVTAGALFYFNMGKLKQEMGGIVTELIRDYNSSREDSLQDAWDYVQAQVKCCGWVSFYNWTDNAELMNRPEVTYPCSCEVKGEEDNSLSVRKGFCEAPGNRTQSGNHPEDWPVYQEGCMEKVQAWLQENLGIILGVGVGVAIIELLGMVLSICLCRHVHSEDYSKVPKY
B1 was tested, and the binding was “binds”.
